One series deals with T1, CP2b (nuclear extract) (UniProt Q811S7).
T1 sequence (looked up, limits assumed): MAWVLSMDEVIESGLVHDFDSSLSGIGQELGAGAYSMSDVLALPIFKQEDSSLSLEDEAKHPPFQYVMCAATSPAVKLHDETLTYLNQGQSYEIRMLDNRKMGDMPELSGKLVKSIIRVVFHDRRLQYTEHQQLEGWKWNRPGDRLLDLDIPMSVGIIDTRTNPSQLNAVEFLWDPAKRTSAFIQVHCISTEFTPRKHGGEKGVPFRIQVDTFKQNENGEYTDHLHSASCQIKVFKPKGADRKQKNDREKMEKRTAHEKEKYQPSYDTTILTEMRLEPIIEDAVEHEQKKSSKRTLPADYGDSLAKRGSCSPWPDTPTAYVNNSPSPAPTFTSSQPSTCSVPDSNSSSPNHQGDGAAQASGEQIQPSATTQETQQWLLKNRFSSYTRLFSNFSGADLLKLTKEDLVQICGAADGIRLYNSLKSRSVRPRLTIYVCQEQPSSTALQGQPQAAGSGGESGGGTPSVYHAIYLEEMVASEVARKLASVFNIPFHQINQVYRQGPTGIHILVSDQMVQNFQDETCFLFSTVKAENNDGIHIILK
Put plainly: DNA-IP. The note with it: DNA-IP: 4% glycerol, 10 mM Tris-HCl pH 7.4, 1 mM DTT, 1 mM EDTA, 0.1% NP-40, room temperature 15 min (then 0-3 uM peptide 15 min), wash 50 mM Tris-HCl pH 7.4, protein in an extract.

By UniProt entry, the sequences of proteins in these tests, tags left out. Residues count along the entry.
UniProt O88907, 2-651: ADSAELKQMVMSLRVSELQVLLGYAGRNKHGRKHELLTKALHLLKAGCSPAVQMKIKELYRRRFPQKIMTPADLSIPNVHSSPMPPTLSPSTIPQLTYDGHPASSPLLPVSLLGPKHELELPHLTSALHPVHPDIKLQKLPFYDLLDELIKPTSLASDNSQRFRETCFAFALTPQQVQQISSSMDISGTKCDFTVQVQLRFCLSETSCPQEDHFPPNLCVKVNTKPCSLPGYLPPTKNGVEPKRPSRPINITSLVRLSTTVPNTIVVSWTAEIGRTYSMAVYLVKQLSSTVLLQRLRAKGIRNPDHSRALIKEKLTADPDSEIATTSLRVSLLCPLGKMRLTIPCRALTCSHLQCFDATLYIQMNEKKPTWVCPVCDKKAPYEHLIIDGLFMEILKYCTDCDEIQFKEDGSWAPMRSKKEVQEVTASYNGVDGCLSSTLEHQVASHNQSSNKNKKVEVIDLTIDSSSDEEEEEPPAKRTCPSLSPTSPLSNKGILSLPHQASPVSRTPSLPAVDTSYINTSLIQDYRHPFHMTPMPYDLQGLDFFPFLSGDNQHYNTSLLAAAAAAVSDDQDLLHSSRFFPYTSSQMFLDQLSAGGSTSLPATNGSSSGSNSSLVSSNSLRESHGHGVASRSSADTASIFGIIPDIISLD

For series [1], the target named is T2, CP2c (C4 or CBP complex) (UniProt Q9ERA0).
T2 sequence (looked up, limits assumed): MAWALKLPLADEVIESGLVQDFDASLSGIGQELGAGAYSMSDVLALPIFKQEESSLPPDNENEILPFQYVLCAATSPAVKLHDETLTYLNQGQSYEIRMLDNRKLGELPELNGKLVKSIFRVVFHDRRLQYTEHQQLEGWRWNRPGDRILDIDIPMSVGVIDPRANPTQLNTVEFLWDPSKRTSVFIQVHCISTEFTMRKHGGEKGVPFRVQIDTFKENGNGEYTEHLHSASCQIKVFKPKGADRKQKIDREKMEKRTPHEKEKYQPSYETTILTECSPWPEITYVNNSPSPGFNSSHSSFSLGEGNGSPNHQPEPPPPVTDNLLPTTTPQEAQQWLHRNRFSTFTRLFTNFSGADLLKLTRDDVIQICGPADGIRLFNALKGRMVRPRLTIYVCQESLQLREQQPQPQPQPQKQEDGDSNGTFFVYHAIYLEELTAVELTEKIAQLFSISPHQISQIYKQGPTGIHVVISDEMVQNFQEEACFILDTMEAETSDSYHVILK
Put plainly: DNA-IP. The conditions noted are these: [C4], Pep #5; DNA-IP: 4% glycerol, 10 mM Tris-HCl pH 7.4, 1 mM DTT, 1 mM EDTA, 0.1% NP-40, room temperature 15 min (then 0-3 uM peptide 15 min); wash 50 mM Tris-HCl pH 7.4; protein in a lysate after overexpression.

Series [2] concerns CP2c (C4 or CBP complex) + CP2b + PIAS1. Put plainly: DNA-IP. The conditions noted are these: Pep #5; DNA-IP: 4% glycerol, 10 mM Tris-HCl pH 7.4, 1 mM DTT, 1 mM EDTA, 0.1% NP-40, room temperature 15 min (then 0-3 uM peptide 15 min); wash 50 mM Tris-HCl pH 7.4; protein in a lysate after overexpression.
The target of the next series is T3, CP2c (nuclear extract) (UniProt Q9ERA0).
T3 sequence (looked up, limits assumed): T2 sequence (looked up, limits assumed)
Put plainly: DNA-IP. The note with it: DNA-IP: 4% glycerol, 10 mM Tris-HCl pH 7.4, 1 mM DTT, 1 mM EDTA, 0.1% NP-40, room temperature 15 min (then 0-3 uM peptide 15 min), wash 50 mM Tris-HCl pH 7.4, protein in an extract.

A further series addresses T4, GST-CP2c E332A (mouse) (UniProt Q9ERA0).
T4 sequence (looked up, limits assumed): T2 sequence (looked up, limits assumed) with E332A
Put plainly: DNA-IP. The conditions noted are these: DNA-IP: 4% glycerol, 10 mM Tris-HCl pH 7.4, 1 mM DTT, 1 mM EDTA, 0.1% NP-40, room temperature 15 min (then 0-3 uM peptide 15 min); wash 50 mM Tris-HCl pH 7.4; recombinant protein; protein details: N-GST.

For another series, the target named is T5, GST-CP2c R339A (mouse) (UniProt Q9ERA0).
T5 sequence (looked up, limits assumed): T2 sequence (looked up, limits assumed) with R339A
Put plainly: DNA-IP. The note with it: DNA-IP: 4% glycerol, 10 mM Tris-HCl pH 7.4, 1 mM DTT, 1 mM EDTA, 0.1% NP-40, room temperature 15 min (then 0-3 uM peptide 15 min); wash 50 mM Tris-HCl pH 7.4; recombinant protein; protein details: N-GST.

For another series, the target named is T6, GST-CP2c R341A (mouse) (UniProt Q9ERA0).
T6 sequence (looked up, limits assumed): T2 sequence (looked up, limits assumed) with R341A
Put plainly: DNA-IP. The note with it: DNA-IP: 4% glycerol, 10 mM Tris-HCl pH 7.4, 1 mM DTT, 1 mM EDTA, 0.1% NP-40, room temperature 15 min (then 0-3 uM peptide 15 min); wash 50 mM Tris-HCl pH 7.4; recombinant protein; protein details: N-GST.

Another series addresses T7, GST-CP2c R347A (mouse) (UniProt Q9ERA0).
T7 sequence (looked up, limits assumed): T2 sequence (looked up, limits assumed) with R347A
Put plainly: DNA-IP. The conditions noted are these: DNA-IP: 4% glycerol, 10 mM Tris-HCl pH 7.4, 1 mM DTT, 1 mM EDTA, 0.1% NP-40, room temperature 15 min (then 0-3 uM peptide 15 min); wash 50 mM Tris-HCl pH 7.4; recombinant protein; protein details: N-GST.

Series [3] has as its target T8, GST-CP2c wildtype (mouse (mCP2c primers)) (UniProt Q9ERA0).
T8 sequence (looked up, limits assumed): T2 sequence (looked up, limits assumed)
Put plainly: DNA-IP. The conditions noted are these: DNA-IP: 4% glycerol, 10 mM Tris-HCl pH 7.4, 1 mM DTT, 1 mM EDTA, 0.1% NP-40, room temperature 15 min (then 0-3 uM peptide 15 min); wash 50 mM Tris-HCl pH 7.4; recombinant protein; protein details: N-GST.

The target in another series is PIAS1 (nuclear extract) (UniProt O88907). Put plainly: DNA-IP. The conditions noted are these: DNA-IP: 4% glycerol, 10 mM Tris-HCl pH 7.4, 1 mM DTT, 1 mM EDTA, 0.1% NP-40, room temperature 15 min (then 0-3 uM peptide 15 min), wash 50 mM Tris-HCl pH 7.4, protein in an extract.
Series [4] concerns the target T2, CP2c (C4 or CBP complex). Put plainly: DNA-IP; DNA pull-down. The conditions noted are these: [C4], DNA-IP: 4% glycerol, 10 mM Tris-HCl pH 7.4, 1 mM DTT, 1 mM EDTA, 0.1% NP-40, room temperature 15 min (then 0-3 uM peptide 15 min), wash 50 mM Tris-HCl pH 7.4, protein in a lysate after overexpression.
Series [5] has as its system CP2c (C4 or CBP complex) + CP2b + PIAS1. Put plainly: DNA-IP; DNA pull-down. The conditions noted are these: DNA-IP: 4% glycerol, 10 mM Tris-HCl pH 7.4, 1 mM DTT, 1 mM EDTA, 0.1% NP-40, room temperature 15 min (then 0-3 uM peptide 15 min), wash 50 mM Tris-HCl pH 7.4, protein in a lysate after overexpression.

Changes are numbered by the printed parent chain. The exact form of at least one protein or probe is not confirmed. For some assays here: Weaker means in comparison with the reference protein, sequence or condition of that experiment. For some assays here: Protein sequences can lack the tags named with them. For some assays here: Where cells or extracts were used, other partners may take part. For some assays here: At least one verdict rests on a figure or table, not on a statement of the authors.

Consider “GATCCCAAGTTTTACTCGGTAGAGCAAGCACAAACCAGG / GATCCCTGGTTTGTGCTTGCTCTACCGAGTAAAACTTGG [wildtype Hba-a2 promoter probe]”, for which the binding result with CP2b (nuclear extract) (Pep #5-2) is reported as “binds more weakly”; with CP2b (nuclear extract) (no peptide) it was “binds”; with CP2c (C4 or CBP complex) [1], “binds more weakly”; in [2] it was “binds more weakly”; with CP2c (nuclear extract) (Pep #5-2), “binds more weakly”; in the series with CP2c (nuclear extract) (no peptide), “binds”. The binding result with GST-CP2c E332A (mouse) is “binds more weakly”; with GST-CP2c R339A (mouse), “binds more weakly”; with GST-CP2c R341A (mouse), “binds more weakly”; with GST-CP2c R347A (mouse), “binds more weakly”; in series [3], “binds”; with PIAS1 (nuclear extract) (Pep #5-2), “binds more weakly”. Besides, the binding result in the series with PIAS1 (nuclear extract) (no peptide) is listed as “binds”; with CP2c (C4 or CBP complex) [4] (Pep #5-2) it was “binds more weakly”; in the series with CP2c (C4 or CBP complex) [4] (no peptide), “binds”; in [5] (Pep #5-2) it was “binds more weakly”; in series [5] (no peptide), “binds”.

These data come from paper PMC10667816, “A Cell‐Penetrant Peptide Disrupting the Transcription Factor CP2c Complexes Induces Cancer‐Specific Synthetic Lethality” (Advanced Science, 2023).
